The nature of the series: self-splicing fitness, log relative to wild type (ln ratio); higher = more splicing; Tetrahymena group I intron in knt gene, E. coli kanamycin selection, DiMSum; sequences stand for … in CUCUCU…GGAGGGAAAAGUUAUCAGGCAUGCACCUGGUAGCUAGUCUUUAAACCAAUAGAUUGCAUCGGUUUAAAAGGCAAGACCGUCAAAUUGCGGGAAAGGGGUCAACAGCCGUUCAGUACCAAGUCUCAGGGGAAACUUUGAGAUGGCCUUGCAAAGGGUAUGGUAAUAAGCUGACGGACAUGGUCCUAACCACGCAGCCAAGUCCUAAGUCAACAGAUCUUCUGUUGAUAUGGAUGCAGUUCACAGACUAAAUGUCGGUCGGGGAAGAUGUAUUCUUCUCAUAAGAUAUAGUCGGACCUCUCCUUAAUGGGAGCUAGCGGAUGAAGUGAUGCAACACUGGAGCCGCUGGGAACUAAUUUGUAUGCGAAAGUAUAUUGAUUAGUUUUGGAGUACUCGUGGUCG
An outline of the steps:
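Fitness was computed with DiMSum as the error-weighted combination of replicate fold changes, kanamycin versus none, each normalised to wild type. The library randomised all eight intron nucleotides of the P1ex region, with the intron placed in the knt kanamycin-resistance gene on pET-22b(+) in E. coli BL21(DE3). Six replicate transformations were grown overnight at 37°C or 30°C on LB agar with or without 25 μg/mL kanamycin, plus 100 μg/mL carbenicillin, 50 μM IPTG and 0.2% rhamnose. Pooled colonies were amplicon-sequenced on an Illumina HiSeq 2500.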

± gives the uncertainty stated by the source. Many of these values have a large error.

With AGAUAGCAAUAUUACGAAAC, the “self-splicing fitness (ln)” value (37 °C) is -3.46 ± 0.6.
For the sequence UGCGAGCAAUAUUACGAUGC, the “self-splicing fitness (ln)” value (37 °C) was found to be 0.0981 ± 1.2.
GGGGAGCAAUAUUACGACUG: the “self-splicing fitness (ln)” value (37 °C) worked out at 0.0946 ± 0.83.
Same read-out and setting: the value for CGCGAGCAAUAUUACGUCCC was -2.47 ± 1.1.
Regarding UAGCAGCAAUAUUACGACGG, the “self-splicing fitness (ln)” value was -0.73 ± 0.09 (30 °C) and -0.313 ± 0.12 (37 °C).
As to UUUAAGCAAUAUUACGUAGC, the “self-splicing fitness (ln)” value (30 °C) is -3.66 ± 1.
CUUUAGCAAUAUUACGGAGC: the “self-splicing fitness (ln)” value (30 °C) is -2.71 ± 0.66 and the “self-splicing fitness (ln)” value (37 °C) was -3.91 ± 1.
For AUCGAGCAAUAUUACGUGAU, the “self-splicing fitness (ln)” value (30 °C) is -3.06 ± 0.76.
On to CGAUAGCAAUAUUACGCUAC, for which, for the setting “37 °C”, the “self-splicing fitness (ln)” value was -3.08 ± 0.6.
Take GUGAAGCAAUAUUACGAACG: the “self-splicing fitness (ln)” value (30 °C) was -1.57 ± 0.4 and the “self-splicing fitness (ln)” value (37 °C) was -1.6 ± 0.52.
For AUCGAGCAAUAUUACGUAUA, for the setting “37 °C”, the “self-splicing fitness (ln)” value was -2.28 ± 0.65.
In the case of GUUUAGCAAUAUUACGCCAG, the “self-splicing fitness (ln)” value (30 °C) is -3.53 ± 0.78 and the “self-splicing fitness (ln)” value (37 °C) was -1.36 ± 0.69.
As for CGUUAGCAAUAUUACGCUUC, the “self-splicing fitness (ln)” value (30 °C) was -3.17 ± 1.
The same measure, in the same setting: for GGGGAGCAAUAUUACGGUAU the value was -2.97 ± 0.75.
GCUAAGCAAUAUUACGCGCC: the “self-splicing fitness (ln)” value (30 °C) was -3.7 ± 0.63 and the “self-splicing fitness (ln)” value (37 °C) was -5.3 ± 1.
Take ACGGAGCAAUAUUACGGAUC: the “self-splicing fitness (ln)” value is -3.09 ± 0.17 (30 °C) and -2.79 ± 0.26 (37 °C).
For GUUAAGCAAUAUUACGGUGG, the “self-splicing fitness (ln)” value (30 °C) was -3.52 ± 0.17 and the “self-splicing fitness (ln)” value (37 °C) was -1.78 ± 0.15.
For GGGGAGCAAUAUUACGGGAG, under “30 °C”, the “self-splicing fitness (ln)” value is -3.06 ± 1.1.
Consider CCAGAGCAAUAUUACGUCCC, for which the “self-splicing fitness (ln)” value by setting is: (30 °C) -4.51 ± 0.72; (37 °C) -2.22 ± 0.55.
For the sequence UAUGAGCAAUAUUACGCAUA, the “self-splicing fitness (ln)” value (30 °C) was -3.28 ± 0.53.
For UCUUAGCAAUAUUACGUGGC, the “self-splicing fitness (ln)” value (30 °C) is -4.8 ± 1.
As for GACGAGCAAUAUUACGCCUA, the “self-splicing fitness (ln)” value (37 °C) was -1.67 ± 0.51.
As for UCGAAGCAAUAUUACGCGAU, the “self-splicing fitness (ln)” value reads like this: (30 °C) -3.31 ± 0.32; (37 °C) -3.23 ± 0.73.
As for UGAGAGCAAUAUUACGCCCU, the “self-splicing fitness (ln)” value (37 °C) is -0.899 ± 0.67.
Consider UUAGAGCAAUAUUACGAUCC, for which the “self-splicing fitness (ln)” value (37 °C) was -2.32 ± 0.63.
For GUCCAGCAAUAUUACGGACC, the “self-splicing fitness (ln)” value (30 °C) is -5.06 ± 0.71.
With ACUGAGCAAUAUUACGCAAC, the “self-splicing fitness (ln)” value (37 °C) was -3.64 ± 1.
As for GGCUAGCAAUAUUACGCCAU, the “self-splicing fitness (ln)” value (37 °C) was -3.1 ± 0.6.
GUUCAGCAAUAUUACGUCAC: the “self-splicing fitness (ln)” value runs as follows: (30 °C) -1.78 ± 0.17; (37 °C) -1.27 ± 0.17.
As to AUUUAGCAAUAUUACGUGGC, the “self-splicing fitness (ln)” value (30 °C) is -3.57 ± 0.43 and the “self-splicing fitness (ln)” value (37 °C) was -1.69 ± 0.32.
In the case of CUAAAGCAAUAUUACGAUAC, the “self-splicing fitness (ln)” value (30 °C) was -5.29 ± 0.51.
Turning to GGAUAGCAAUAUUACGCUUC, under “37 °C”, the “self-splicing fitness (ln)” value is -2.43 ± 0.63.
In the case of CCGGAGCAAUAUUACGCAGA, the “self-splicing fitness (ln)” value reads like this: (30 °C) -3.62 ± 0.61; (37 °C) -2.05 ± 0.5.
On to UCUAAGCAAUAUUACGUGUC, for which the “self-splicing fitness (ln)” value (37 °C) is -3.08 ± 1.
Regarding UCUAAGCAAUAUUACGCCGA, the “self-splicing fitness (ln)” value was -1.12 ± 0.19 (30 °C) and -0.156 ± 0.2 (37 °C).
With AGUGAGCAAUAUUACGUUAC, the “self-splicing fitness (ln)” value (37 °C) is -3.49 ± 0.73.
Take CUGCAGCAAUAUUACGAUGC: the “self-splicing fitness (ln)” value (30 °C) is -3.13 ± 0.24 and the “self-splicing fitness (ln)” value (37 °C) is -1.92 ± 0.43.
For CUAAAGCAAUAUUACGCCGC, where the note is “37 °C”, the “self-splicing fitness (ln)” value was -1.78 ± 0.54.
As to UGUGAGCAAUAUUACGUCGA, the “self-splicing fitness (ln)” value is, setting by setting: (30 °C) -2.59 ± 0.64; (37 °C) 0.0981 ± 1.2.
In the case of AAUCAGCAAUAUUACGUUCU, the “self-splicing fitness (ln)” value reads like this: (30 °C) 0.0868 ± 0.061; (37 °C) 0.0857 ± 0.085.
On to ACAGAGCAAUAUUACGAAGC, for which the “self-splicing fitness (ln)” value (37 °C) was -3.16 ± 0.76.
Turning to AUCGAGCAAUAUUACGGUCG, the “self-splicing fitness (ln)” value (37 °C) is -3 ± 0.74.
UAGGAGCAAUAUUACGCCUC: the “self-splicing fitness (ln)” value is -2.96 ± 0.75 (30 °C) and -1.29 ± 0.71 (37 °C).
Take UCAGAGCAAUAUUACGCCCG: where the note is “37 °C”, the “self-splicing fitness (ln)” value was -1.37 ± 0.65.
With ACCGAGCAAUAUUACGCGGC, the “self-splicing fitness (ln)” value (37 °C) is -2.77 ± 1.1.
Turning to GUUCAGCAAUAUUACGUCCC, the “self-splicing fitness (ln)” value (30 °C) was -0.868 ± 1.4.
Same read-out and setting: for AGUAAGCAAUAUUACGCCUC the value was -2.65 ± 1.1.
In the case of CGUGAGCAAUAUUACGAAGA, the “self-splicing fitness (ln)” value (37 °C) is -2.53 ± 0.62.
Consider UUUUAGCAAUAUUACGUAUA, for which, where the note is “37 °C”, the “self-splicing fitness (ln)” value was -2.64 ± 0.53.
